In article doi:10.1101/2021.02.02.429361 (bioRxiv, 2021):
Positions count from the first letter of the chain named. In names and notes the source's numbering stands. No constants are given. Whether binding was seen depends on the method and setting. For part of these data: In cells and extracts the contact can be indirect. Some entries that bind do so weakly or less than the wild type. Where a sequence is shown, tags or fusion partners need not be part of it.

Assays:
[1] = molecular target: T1, AtMPK3 (mitogen activated protein kinase-3), full length, yeast two-hybrid fusion (Arabidopsis thaliana) (UniProt Q39023); assay: two-hybrid
T1 sequence: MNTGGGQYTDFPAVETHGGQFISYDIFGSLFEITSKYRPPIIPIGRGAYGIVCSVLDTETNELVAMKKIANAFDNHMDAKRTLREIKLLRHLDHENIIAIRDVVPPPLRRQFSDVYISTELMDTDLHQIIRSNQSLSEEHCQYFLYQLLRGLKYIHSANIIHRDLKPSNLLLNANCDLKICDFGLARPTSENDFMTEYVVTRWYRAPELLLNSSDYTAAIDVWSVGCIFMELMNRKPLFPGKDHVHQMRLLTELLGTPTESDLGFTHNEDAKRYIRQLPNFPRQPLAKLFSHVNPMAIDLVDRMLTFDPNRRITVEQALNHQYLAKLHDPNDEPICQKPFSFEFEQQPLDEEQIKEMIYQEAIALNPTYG

[2] = molecular target: AtABI5 wild type, BiFC fusion (ABI5-nYFP) (Arabidopsis thaliana) (UniProt Q9SJN0); assay: split reporter
[3] = molecular target: T2, MPK3-cYFP (BiFC fusion) (Arabidopsis thaliana) (UniProt Q39023); assay: split reporter
T2 sequence: T1 sequence

[4] = molecular target: T3, AtABI5^S314A (phospho-null), BiFC fusion (Arabidopsis thaliana) (UniProt Q9SJN0); assay: split reporter
T3 sequence: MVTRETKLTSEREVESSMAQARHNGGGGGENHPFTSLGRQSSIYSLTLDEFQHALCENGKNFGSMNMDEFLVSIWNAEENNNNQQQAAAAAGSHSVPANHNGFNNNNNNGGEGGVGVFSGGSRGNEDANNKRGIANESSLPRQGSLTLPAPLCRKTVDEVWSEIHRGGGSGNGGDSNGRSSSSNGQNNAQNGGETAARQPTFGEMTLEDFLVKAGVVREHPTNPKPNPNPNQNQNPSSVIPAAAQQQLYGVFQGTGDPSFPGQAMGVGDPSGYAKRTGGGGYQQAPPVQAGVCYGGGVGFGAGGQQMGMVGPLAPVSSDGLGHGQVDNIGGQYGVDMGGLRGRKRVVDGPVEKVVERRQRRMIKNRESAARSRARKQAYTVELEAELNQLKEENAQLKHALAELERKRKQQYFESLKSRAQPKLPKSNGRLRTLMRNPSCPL

[5] = molecular target: AtABI5^S314D (phospho-mimic), BiFC fusion (Arabidopsis thaliana) (UniProt Q9SJN0); assay: split reporter

B1: AtABI5 (ABSCISIC ACID-… 5) full length, yeast two-hybrid fusion (protein, UniProt Q9SJN0 1-442)
chain: T3 sequence with A314S
For B1, the binding [1] was “binds”.

B2: AtABI5 wild type, BiFC fusion (ABI5-nYFP) (protein, UniProt Q9SJN0 1-442)
chain: T3 sequence with A314S
In the case of B2, the binding [2] is reported as “binds” and the binding [3] is reported as “binds”.

B3: AtABI5^S314A (phospho-null), BiFC fusion (protein, UniProt Q9SJN0 1-442)
chain: T3 sequence
B3 was tested, and the binding [4] was “binds”.

B4: AtABI5^S314D (phospho-mimic), BiFC fusion (protein, UniProt Q9SJN0 1-442)
chain: T3 sequence with A314D
For B4, the binding [4] was “no binding” and the binding [5] was “no binding”.
